These are yes or no findings as the source states them, for the method shown. Some binding calls cover weakened binding; strength is not graded here.

Amino acid sequences for entries named in this document (tags omitted). Residues count along the entry.
UniProt Q939N5, residues 399-601: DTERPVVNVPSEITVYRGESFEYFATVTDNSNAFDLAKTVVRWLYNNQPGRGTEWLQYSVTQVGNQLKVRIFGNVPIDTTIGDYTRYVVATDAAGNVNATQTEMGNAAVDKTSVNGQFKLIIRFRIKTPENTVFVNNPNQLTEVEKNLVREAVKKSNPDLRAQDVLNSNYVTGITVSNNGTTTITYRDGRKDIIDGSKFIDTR

This test deals with T1, C1-esterase inhibitor (100 kD) from human plasma (human) (UniProt P05155).
T1 sequence: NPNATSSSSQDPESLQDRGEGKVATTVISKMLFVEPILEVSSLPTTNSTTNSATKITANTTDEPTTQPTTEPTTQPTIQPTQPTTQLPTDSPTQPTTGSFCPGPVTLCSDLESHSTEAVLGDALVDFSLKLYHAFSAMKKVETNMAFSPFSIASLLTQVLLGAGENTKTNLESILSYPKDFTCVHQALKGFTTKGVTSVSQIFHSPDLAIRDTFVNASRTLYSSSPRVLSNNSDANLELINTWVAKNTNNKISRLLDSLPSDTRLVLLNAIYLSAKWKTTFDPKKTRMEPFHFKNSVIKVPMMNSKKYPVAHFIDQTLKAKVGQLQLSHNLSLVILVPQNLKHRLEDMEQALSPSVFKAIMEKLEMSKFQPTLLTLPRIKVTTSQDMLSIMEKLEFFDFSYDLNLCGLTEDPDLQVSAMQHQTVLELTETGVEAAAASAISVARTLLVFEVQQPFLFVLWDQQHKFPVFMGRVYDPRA
The test can be described thus: far-western analysis of human plasma proteins.

For “Siglec-like adhesin GspB from S. gordonii strain M99 (from UniProt Q939N5 399-601)”, the binding result was “binds”.

Values taken from patent US20230236193A1, “[…] FOR S[…]” (VANDERBILT UNIVERSITY, priority 2020, published 2023).
